In all, about 350,000 compounds went through this assay and about 6,000 (1.7%) were called active. This list was built around the results that the source calls inconclusive (neither active nor inactive); the mix of calls is not that of the screen. Cut-off read from the data, not from the text of the source: active = CPE inhibition above about 20% (passing the limit was not always enough); inconclusive = no clear call, values can overlap the other calls; tested in BHK-21 cells. More than one record can exist for a structure, and the calls need not agree.
experiment: protection of cells from dengue 2 killing – plate reader, single concentration, primary screen (AID 651640); settings: DENV2-infected cells, cytopathic effect rescue, at 9.99 µM, hits give high values;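 note: 0% = median of neutral control wells and 100% = median of positive control wells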

| SMILES | CPE inhibition |
| --- | --- |
| Cc1noc(C)c1NC(=O)N(C)C[C@H]1Oc2cc(C#CCN(C)C)ccc2S(=O)(=O)N([C@@H](C)CO)C[C@@H]1C | inconclusive: 26.6% |
| Cc1cc(C)c2nc(NNC(=O)c3cc(-c4cccs4)nc4ccccc34)sc2c1 | inconclusive: 48.8% |
| COc1ccc(C2c3c(ncn(CCCO)c3=N)Oc3ccc4ccccc4c32)cc1OC (stereo not drawn) | inconclusive: 24.3% |
| COCCCNC(=O)/C(C#N)=C/c1c(N2CCN(c3ccc(OC)cc3)CC2)nc2c(C)cccn2c1=O | inconclusive: 23.4% |
| C[C@@H]1CCCCO[C@@H](CN(C)C(=O)Nc2ccc(C(F)(F)F)cc2)[C@@H](C)CN([C@H](C)CO)C(=O)c2cc(NS(=O)(=O)c3ccccc3)ccc2O1 | active: 21.4% |
| CC(C)CC#Cc1ccc2c(c1)O[C@H](CN(C)C(=O)c1ccccc1F)[C@@H](C)CN([C@H](C)CO)S2(=O)=O | inconclusive: 30.1% |
| CCNC(=O)C[C@H]1CC[C@@H]2[C@H](COc3ccc(NC(=O)NC(C)C)cc3C(=O)N2C)O1 | active: 40.9% |
| C[C@H](CO)N1C[C@H](C)[C@@H](CN(C)C(=O)CN(C)C)Oc2cc(C#Cc3ccccc3)ccc2S1(=O)=O | inactive: 11.7% |
| COc1ccc(CNC(=O)C[C@@H]2CC[C@H]3[C@H](COc4ccc(NC(C)=O)cc4C(=O)N3C)O2)cc1 | inactive: 1.17% |
| Cc1ccc2nc(C3CCCN3Cc3nc(CCC(C)C)no3)[nH]c2c1 (stereo not drawn) | inconclusive: 32.5% |
| CN(C)CCCNC(=O)C[C@H]1CC[C@@H]2[C@@H](COc3ccc(NC(=O)C4CCC4)cc3C(=O)N2C)O1 | inconclusive: 63.2% |
| CCCN(C)C[C@@H]1OCCCC[C@@H](C)Oc2ccc(NC(=O)Nc3ccc(C(F)(F)F)cc3)cc2C(=O)N([C@H](C)CO)C[C@@H]1C | active: 28.4% |
| COc1ccccc1N1CCN(C(=O)C2CC2)CC1 | inconclusive: 27.2% |
| Cn1c(=O)c2c(nc(NC3CCCCC3)n2Cc2ccccc2)n(C)c1=O | inactive: -9.03% |
| Cc1cc(C)c[n+](-c2nc3ccccc3nc2[N-]S(=O)(=O)c2ccc(Cl)cc2)c1 | inconclusive: 31.3% |
| CN(CC(=O)Nc1cccc(F)c1)C(=O)c1ccc(NC2CC2)c([N+](=O)[O-])c1 | inconclusive: 22.9% |
| C[C@@H]1CN([C@H](C)CO)C(=O)c2cccc(NS(C)(=O)=O)c2O[C@@H]1CN(C)S(C)(=O)=O | inconclusive: 21.6% |
| Cc1ccc(C(=O)O)cc1-n1c(=O)n(Cc2ccccc2)c(=O)c2[nH]cnc21 | inconclusive: 48% |
| Cc1ccc(S(=O)(=O)N(C)C[C@@H]2Oc3c(NS(=O)(=O)c4ccccc4)cccc3C(=O)N([C@@H](C)CO)C[C@@H]2C)cc1 | inconclusive: 30.2% |
| Cc1ccc(OCCCc2c(C)n[nH]c2C)cc1 | inactive: -6.64% |
| Cc1nnc(N/N=C\c2ccc(-c3cccc(C(=O)O)c3)o2)n1N | inconclusive: 29.3% |
| COc1ccc(NC(=O)CSc2ccc(-c3sc(C)nc3C)nn2)cc1OC | inactive: -10.9% |
| C[C@@H]1CN([C@@H](C)CO)C(=O)c2cc(C#CCC3CCCC3)cnc2O[C@H]1CN(C)S(=O)(=O)c1cccs1 | active: 37.8% |
| O=C(COC(=O)/C=C/c1ccco1)Nc1ncc(C(F)(F)F)cc1Cl | inconclusive: 46.2% |
| COc1ccc(S(=O)(=O)NCCC(=O)N2CCCN(C)CC2)cc1 | inconclusive: 25.5% |

| SMILES | CPE inhibition |
| --- | --- |
| CC(C)C#Cc1ccc([C@@H]2[C@H]3CN(CC4CC4)CCCCN3[C@H]2CO)cc1 | active: 26.1% |
| O=C(OCc1c(-c2ccccc2)ncc2ccccc12)N1CCOCC1 | inconclusive: 57% |
| CCCC(NC(=O)c1ccc(Br)o1)c1nc2ccccc2[nH]1 (stereo not drawn) | inconclusive: 20.2% |
| CC(=O)c1ccc(COC(=O)c2cc3ccccc3oc2=O)cc1 | inconclusive: 55% |
| CC(C)NC(=O)N(C)C[C@H]1Oc2c(NS(=O)(=O)c3ccc(F)cc3)cccc2C(=O)N([C@H](C)CO)C[C@@H]1C | inconclusive: 24.7% |
| CC(C)NC(=O)Nc1ccc2c(c1)C(=O)N([C@H](C)CO)C[C@H](C)[C@H](CN(C)C(=O)NC(C)C)OCCCC[C@@H](C)O2 | inactive: -2.29% |
| COCCCN1CN(S(=O)(=O)c2ccc(C)cc2C)c2nc3ccccc3nc21 | inconclusive: 23.8% |
| O=C(C1CCCC1)N1C[C@@H]2N[C@H](C1)C2c1ccc(-c2cccc(F)c2)cc1 (stereo partly drawn) | active: 47.3% |
| Cc1noc(C)c1S(=O)(=O)Nc1ccc2c(c1)C(=O)N([C@H](C)CO)C[C@@H](C)[C@H](CN(C)C(=O)Nc1ccc(C(F)(F)F)cc1)OCCCC[C@@H](C)O2 | inconclusive: 24% |
| OC1(CC#CCN2CCCCC2)c2ccccc2-c2ccccc21 | inactive: -2.01% |
| CCS(=O)(=O)NCC[C@@H]1CC[C@@H](NS(=O)(=O)c2ccccc2C)[C@@H](CO)O1 | inconclusive: 42.8% |
| CN1c2ccc(-c3ccc(F)cc3)cc2[C@@H]2[C@@H](CCN2C(=O)Cc2ccccn2)[C@@H]1CO | inconclusive: 40.5% |
| Cc1c(C(=O)NCc2ccc(C#N)cc2)sc(=O)n1Cc1ccccn1 | active: 21.3% |
| CCCNC(=O)N1C[C@@H](C)[C@@H](OC)CN(C)C(=O)c2cc(NS(=O)(=O)CC(F)(F)F)ccc2OC[C@H]1C | inactive: 1.54% |
| C[C@@H]1CN([C@@H](C)CO)S(=O)(=O)c2ccc(C#CC3(O)CCCC3)cc2O[C@@H]1CN(C)C(=O)c1ccncc1 | inconclusive: 29.5% |
| CCC(=O)N1C[C@@H](O)COC[C@H]2O[C@@H](CC(=O)NC)CC[C@@H]21 | inactive: -5.3% |
| COc1ccc(Cn2c(C)nc([N+](=O)[O-])c2SCC(=O)O)cc1[N+](=O)[O-] | inactive: 1.21% |
| O=C(C1CC1)N1CC[C@@H]2[C@H]1c1cc(C#Cc3ccccc3F)ccc1N[C@@H]2CO | active: 28.6% |
| CCN1C(=O)[C@H]2[C@@H](c3ccc(C)cc3)N3C(=O)N(c4ccc(C)cc4)C(=O)[C@@]3(C)[C@H]2C1=O | inconclusive: 28.9% |
| Cc1ccc(C(=O)Nc2sc3c(c2C(=O)O)CCCC3)o1 | inactive: -5.57% |
| Cc1ccc([C@@H]2CC=C(C(=O)O)[C@H](c3ccccc3F)N2S(=O)(=O)c2ccc(C)cc2)cc1 | inactive: -6.38% |
| CSc1ccccc1OCc1cc(C(=O)N2CCc3c(Cl)cccc3C2)no1 | inactive: 4.03% |
| CCN(CC)S(=O)(=O)c1ccc(OC)c(NC(=O)c2cc([N+](=O)[O-])ccc2N2CCOCC2)c1 | inactive: 2.88% |
| COCCNc1nc(NCc2ccccc2F)c2sccc2n1 | inconclusive: 49.3% |
| C[C@@H]1CN([C@H](C)CO)C(=O)c2cc(NC(=O)C3CC3)ccc2O[C@@H]1CN(C)C(=O)Nc1ccc(F)cc1 | inconclusive: 56% |

An excerpt from above in order of formula weight, ascending:

| SMILES | CPE inhibition |
| --- | --- |
| Cc1ccc(C(=O)Nc2sc3c(c2C(=O)O)CCCC3)o1 | inactive: -5.57% |
| CCC(=O)N1C[C@@H](O)COC[C@H]2O[C@@H](CC(=O)NC)CC[C@@H]21 | inactive: -5.3% |
| OC1(CC#CCN2CCCCC2)c2ccccc2-c2ccccc21 | inactive: -2.01% |
| CC(=O)c1ccc(COC(=O)c2cc3ccccc3oc2=O)cc1 | inconclusive: 55% |
| COCCNc1nc(NCc2ccccc2F)c2sccc2n1 | inconclusive: 49.3% |
| O=C(OCc1c(-c2ccccc2)ncc2ccccc12)N1CCOCC1 | inconclusive: 57% |
| CCCC(NC(=O)c1ccc(Br)o1)c1nc2ccccc2[nH]1 (stereo not drawn) | inconclusive: 20.2% |
| O=C(C1CCCC1)N1C[C@@H]2N[C@H](C1)C2c1ccc(-c2cccc(F)c2)cc1 (stereo partly drawn) | active: 47.3% |
| CC(C)C#Cc1ccc([C@@H]2[C@H]3CN(CC4CC4)CCCCN3[C@H]2CO)cc1 | active: 26.1% |
| O=C(C1CC1)N1CC[C@@H]2[C@H]1c1cc(C#Cc3ccccc3F)ccc1N[C@@H]2CO | active: 28.6% |
| COCCCN1CN(S(=O)(=O)c2ccc(C)cc2C)c2nc3ccccc3nc21 | inconclusive: 23.8% |
| CSc1ccccc1OCc1cc(C(=O)N2CCc3c(Cl)cccc3C2)no1 | inactive: 4.03% |
| CCS(=O)(=O)NCC[C@@H]1CC[C@@H](NS(=O)(=O)c2ccccc2C)[C@@H](CO)O1 | inconclusive: 42.8% |
| CCN1C(=O)[C@H]2[C@@H](c3ccc(C)cc3)N3C(=O)N(c4ccc(C)cc4)C(=O)[C@@]3(C)[C@H]2C1=O | inconclusive: 28.9% |
| CN1c2ccc(-c3ccc(F)cc3)cc2[C@@H]2[C@@H](CCN2C(=O)Cc2ccccn2)[C@@H]1CO | inconclusive: 40.5% |
| Cc1ccc([C@@H]2CC=C(C(=O)O)[C@H](c3ccccc3F)N2S(=O)(=O)c2ccc(C)cc2)cc1 | inactive: -6.38% |
| CCN(CC)S(=O)(=O)c1ccc(OC)c(NC(=O)c2cc([N+](=O)[O-])ccc2N2CCOCC2)c1 | inactive: 2.88% |
| C[C@@H]1CN([C@H](C)CO)C(=O)c2cc(NC(=O)C3CC3)ccc2O[C@@H]1CN(C)C(=O)Nc1ccc(F)cc1 | inconclusive: 56% |
| C[C@@H]1CN([C@@H](C)CO)S(=O)(=O)c2ccc(C#CC3(O)CCCC3)cc2O[C@@H]1CN(C)C(=O)c1ccncc1 | inconclusive: 29.5% |
| CC(C)NC(=O)N(C)C[C@H]1Oc2c(NS(=O)(=O)c3ccc(F)cc3)cccc2C(=O)N([C@H](C)CO)C[C@@H]1C | inconclusive: 24.7% |
| CC(C)NC(=O)Nc1ccc2c(c1)C(=O)N([C@H](C)CO)C[C@H](C)[C@H](CN(C)C(=O)NC(C)C)OCCCC[C@@H](C)O2 | inactive: -2.29% |

Later entries

| SMILES | CPE inhibition |
| --- | --- |
| C[C@H](CO)N1C[C@H](C)[C@H](CN(C)S(=O)(=O)c2ccc(C(F)(F)F)cc2)OCc2ccccc2-c2ccccc2C1=O | active: 33.1% |
| Cc1c(C(C)C)c(=O)n(-c2ccc(S(=O)(=O)NC(C)C)cc2)n1C | inactive: 14% |
| COc1ccccc1NC(=O)C[C@H]1CC[C@H]2[C@@H](COc3ccc(NC(C)=O)cc3C(=O)N2C)O1 | inactive: -9.31% |
| OC(CNC1CCCC1)COc1ccccc1Br (stereo not drawn) | inconclusive: 21.1% |
| CCS(=O)(=O)N1CC2(CN(Cc3cccnc3)[C@@H](CO)c3c2c2ccc(OC)cc2n3C)C1 | inconclusive: 21.8% |
| CN(C(=O)COC(=O)CSc1ccc([N+](=O)[O-])cc1)c1ccccc1 | active: 36.1% |
| C[C@@H]1CN([C@H](C)CO)C(=O)c2cc(NC(=O)CCC(F)(F)F)ccc2O[C@@H](C)CCCCO[C@H]1CN(C)C(=O)Cc1ccccc1 | inactive: -6% |
| COC(=O)C[C@@H]1CC[C@H]2[C@@H](COc3ccc(NC(=O)c4ccc(C(F)(F)F)cc4)cc3C(=O)N2C)O1 | active: 99.1% |
| N#CC1(NC(=O)CSc2nnc(COc3ccccc3F)n2N)CCCCC1 | inconclusive: 37.1% |
| CCOC(=O)/C=C/c1cc(F)ccc1O | active: 20.7% |
| COc1ccc(CCNC(=O)CSC(=O)c2ccccc2)cc1OC | inconclusive: 43% |
| CCCCNC(=O)c1onc(CSc2cccc(OC)c2)c1C(=O)NCCCC | inconclusive: 29.6% |
| O=C(NC1CCCCC1)C(c1ccc(-c2ccccc2)cc1)n1c(=O)c(-c2ccco2)nc2ccccc21 (stereo not drawn) | inconclusive: 71.3% |
| CCC(C(=O)OC(C)C)c1ccc2ccccc2c1 (stereo not drawn) | inconclusive: 58% |
| O=C(CCCOc1ccc(Cl)cc1Cl)Nc1ccccc1C(=O)O | inactive: 2.12% |
| COCC(=O)Nc1ccc2c(c1)[C@H]1C[C@@H](CC(=O)NCc3ccccc3)O[C@@H](CO)[C@H]1O2 | inactive: 9.18% |
| O=C(C[C@@H]1C=C[C@@H](NC(=O)C2CCC2)[C@@H](CO)O1)NCc1ccncc1 | inactive: -0.275% |
| O=C(CC1CC1)N[C@H]1CC[C@@H](CCNS(=O)(=O)c2ccc(F)cc2)O[C@@H]1CO | inactive: -0.384% |
| CCCCN(C)C(=O)c1sc(=O)n(Cc2ccccc2F)c1C | inconclusive: 45.3% |
| CNC(=O)C[C@@H]1CC[C@H]2[C@@H](COC[C@H](O)CN2C(=O)Nc2cccc(OC)c2)O1 | active: 58.3% |
| CC(C)(CN1CCN(Cc2ccccc2)CC1)NS(=O)(=O)c1ccc(Cl)cc1 | active: 29.6% |
| C=CCc1cccc(CNc2c(C)cc(C)cc2C)c1O | inconclusive: 27.1% |
| Cc1ccc(Cc2c(-c3ccccc3)nc3ccc(Cl)cn23)cc1 | inconclusive: 38.5% |

— PubChem BioAssay AID651640 (Broad Institute, 2012)
